# About 13,000 (3.2%) of roughly 400,000 compounds were called active. This list was built around the results that the source calls inconclusive (neither active nor inactive); the mix of calls is not that of the screen. The call rests on the fitted dose curve; in most records, active means well fitted cell-killing curve with a large enough effect; inconclusive means small, poorly fitted or top-dose-only effect, or effect the other way; inactive means flat fitted curve, though single readings scatter. Potencies of inconclusive entries are doubtful fits and often do not repeat.
# Assay: qHTS assay for MDR1-selective chemotherapeutics: Primary screen using the drug-selected MDR subline cells KB-V1; further: nearly all actives have a fitted effect of over 60% in size
# Conditions: KB-V1 MDR cells viability, CellTiter-Glo, 72 h; series mostly up to 46.1 µM
# Summary of the method: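 Luminescent ATP read-out (CellTiter-Glo, 10 min) measures survival of drug-selected KB-V1 MDR cells after 72 h, 37 degrees C compound exposure. Medium: phenol-red-free DMEM, 10% FBS. Values from fitted concentration-response curves.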
# Potency means the concentration at half of the fitted maximal effect.
row,Compound,Potency
1,COc1ccccc1N1CCN(C2CC(=O)N(C)C2=O)CC1 (configuration not stated),"inconclusive: 25.9 µM [rising, single point]"
2,O=C(CN1C(=O)NC2(CCCC2)C1=O)Nc1cc(Cl)ccc1N1CCCCC1,"inconclusive: 2.59 µM [cytotoxic, full curve]"
3,CCc1ccc(OC(=O)CN2C(=O)c3ccccc3C2=O)cc1,"inconclusive: 8.2 µM [rising, partial curve, poor fit]"
4,Cn1c(=O)[nH]c(=O)c2c1nc(Br)n2CCCSc1nc2ccccc2o1,"inconclusive: 29.1 µM [cytotoxic, single point]"
5,CCCCn1c(N)c(N(CCOC)C(=O)c2ccc3c(c2)C(=O)N(c2ccccc2Cl)C3=O)c(=O)[nH]c1=O,"inconclusive: 16.4 µM [rising, partial curve]"
6,O=C(Nc1ccc(S(=O)(=O)N2CCOCC2)cc1)c1ccc([N+](=O)[O-])s1,"inconclusive: 4.61 µM [cytotoxic, full curve]"
7,c1ccc(OCCCn2nnc(-c3ccncc3)n2)cc1,"inconclusive: 29.1 µM [cytotoxic, single point]"
8,COC(=O)[C@]12CCCCC=C1N(Cc1cccc3ccccc13)C(=O)[C@H](CC(=O)N1CCSCC1)C2,"inconclusive: 16.4 µM [cytotoxic, single point]"
9,COc1ccccc1NC(=O)CSc1nnc(NC(=O)C2CCC2)s1,"inconclusive: 10.3 µM [cytotoxic, partial curve]"
10,CC(Nn1cnnc1)c1cc(Cl)ccc1O (configuration not stated),"inconclusive: 23.1 µM [rising, partial curve, poor fit]"
11,O=C(CN1C(=O)CCn2nc(-c3ccccc3)cc21)NCc1ccccc1,"inconclusive: 20.6 µM [rising, single point]"
12,CN(C(=O)CN1C(=O)NC(C)(c2cccc(Br)c2)C1=O)C1CCCCC1 (configuration not stated),active: 23.1 µM
13,O=c1[nH]c(C2CCCN(S(=O)(=O)c3ccccc3F)C2)nc2c1nnn2Cc1ccccc1Cl (configuration not stated),inactive
14,CC(C)c1nc(NCCN2CCOCC2)c(C#N)c2c1COC(C)(C)C2,"inconclusive: 9.2 µM [cytotoxic, partial curve]"
15,CCCCN1CC[C@H]2C=CC[C@@H](C(=O)Nc3ccc(OC)cc3)[C@H]2C1=O,"inconclusive: 13 µM [cytotoxic, partial curve]"
16,CCCC1(c2ccccc2)NC(=O)N(CC(=O)Nc2cc(C)ccc2OC)C1=O (configuration not stated),inactive
17,COc1ccc(-c2cccc(C3CC=CC4C3C(=O)N(Cc3ccccc3)C4c3ccc(C(F)(F)F)cc3)c2)cc1 (configuration not stated),inactive
18,Cc1cc(C(=O)OCC(=O)Nc2ccccc2C)c(C)o1,"inconclusive: 14.6 µM [cytotoxic, partial curve]"
19,Cc1nc2ccccc2c(=O)n1NS(C)(=O)=O,inactive
20,Cc1nn(-c2ccccc2)c2c1P(=O)(O)/C(=C1\N(C)c3ccccc3C1(C)C)C=N2,inactive
21,CC(C)Oc1ccc(CN2CCC2(C)C(=O)Nc2cccc3cccnc23)cc1 (configuration not stated),"inconclusive: 2.91 µM [cytotoxic, partial curve, poor fit]"
22,Nc1c(C(=O)c2ccc(F)cc2)oc2ccccc12,inactive
23,Cn1c(=O)c(=O)n(C)c2cc(NS(=O)(=O)c3ccc(Br)cc3)c(Cl)cc21,inactive

# Among those listed so far, these have fluorine.
row,Compound,Potency
13,O=c1[nH]c(C2CCCN(S(=O)(=O)c3ccccc3F)C2)nc2c1nnn2Cc1ccccc1Cl (configuration not stated),inactive
17,COc1ccc(-c2cccc(C3CC=CC4C3C(=O)N(Cc3ccccc3)C4c3ccc(C(F)(F)F)cc3)c2)cc1 (configuration not stated),inactive
22,Nc1c(C(=O)c2ccc(F)cc2)oc2ccccc12,inactive

# (further entries)

row,Compound,Potency
1,COc1cc(C2=NOC(C(=O)Nc3cccnc3)C2)cc(OC)c1OC (configuration not stated),"inconclusive: 29.1 µM [cytotoxic, single point]"
2,O=C(Nc1cccc(-c2csc(Nc3ccc(Cl)cc3)n2)c1)c1cc([N+](=O)[O-])cc(C(F)(F)F)c1,inactive
3,CC(C)N(Cc1nc(-c2ccc(Cl)cc2)no1)C(=O)C(c1ccccc1)c1ccccc1,"inconclusive: 20.6 µM [cytotoxic, partial curve]"
4,C#CCOCCOCCOCCNc1nc(N2CCN(C(=O)CCCCCCCCCCNC(=O)[C@H]([C@@H](C)CC)n3cc(CCCCN=C(N)N)nn3)CC2)nc(N2CCN(C(=O)CCCCCCCCCCNC(=O)[C@H](CCCCN)n3cc(C)nn3)CC2)n1,"inconclusive: 29.1 µM [cytotoxic, single point]"
5,N#Cc1nc(Nc2cccc(Cl)c2)c2ncn(C3CCCC3)c2n1,inactive
6,COc1ccc(N2CCN(C(=O)c3cn(CC4CCCCC4)nn3)CC2)cc1,inactive
7,C=CCn1c(SCC(=O)C23CC4CC(CC(C4)C2)C3)nc(O)cc1=O,"inconclusive: 7.31 µM [rising, full curve, poor fit]"
8,COc1ccccc1OCCNC(=O)/C=C/c1ccc([N+](=O)[O-])cc1,active: 14.6 µM
9,CCCc1c(-c2cccc(F)c2)ncn1CCc1ccccc1OC,active: 18.4 µM
10,NC(=O)CCN1CCN(CCOC2Cc3cc(Cl)ccc3Sc3ccccc32)CC1 (configuration not stated),"inconclusive: 18.4 µM [cytotoxic, single point]"
11,CC(c1ccon1)N(C)Cc1cn(Cc2ccccc2)nc1-c1ccc2c(c1)OCO2 (configuration not stated),"inconclusive: 32.6 µM [cytotoxic, single point]"
12,O=C(NCc1ccccc1)c1nc(-c2c(F)cccc2F)oc1-c1ccccc1,"inconclusive: 8.2 µM [cytotoxic, partial curve]"
13,Nc1nc(-c2ccc3c(c2)CCO3)cs1,inactive
14,CCOc1cc(CNCc2cccnc2)ccc1OCC(=O)NC(C)(C)C,inactive
15,CN(C)c1cccc2c1C(=O)c1ccccc1C2=O,"inconclusive: 23.1 µM [cytotoxic, single point]"
16,CCCCN1C[C@H](Cc2ccccc2)[C@@H](CC(=O)Nc2ccccc2)C1=O,"inconclusive: 7.31 µM [cytotoxic, partial curve]"
17,CCc1ccc(N2CC(C(=O)OCC(=O)NNC(=O)c3ccccc3)CC2=O)cc1 (configuration not stated),inactive
18,Cc1cn([C@H]2C[C@H](O)[C@@H](CCC(=O)NCc3cccc4ccccc34)O2)c(=O)[nH]c1=O,inactive
19,CC(Oc1ccccc1)C(=O)Nc1ccc(C(=O)OCc2cc(=O)n3nc(C4CC4)sc3n2)cc1 (configuration not stated),"inconclusive: 18.4 µM [cytotoxic, single point]"
20,O=c1[nH]c2ccccc2c(O)c1O,"inconclusive: 23.1 µM [cytotoxic, single point]"
21,COc1cc2sc3ccc(-c4ccc5[nH]ccc5c4)cc3c(=O)c2cc1OC,"inconclusive: 20.6 µM [cytotoxic, single point]"
22,O=C(CSc1nc2ccccc2s1)Nc1cc(S(=O)(=O)N2CCOCC2)ccc1O,inactive
23,CCOc1ccc(-c2nnc(SCC(=O)Nc3ccc(C)cc3C)o2)cc1,"inconclusive: 29.1 µM [rising, single point]"

row,Compound,Potency
1,Cc1ccc(S(=O)(=O)c2c(CO)c(-c3ccccc3)nn2C)cc1,active: 14.6 µM
2,COc1ccc(C2/C=C\CN(C(=O)Nc3ccccc3-c3ccccc3)CC(=O)N2Cc2ccc(F)cc2)cc1 (configuration not stated),"inconclusive: 29.1 µM [cytotoxic, single point]"
3,Cc1cc(C)c(C)c(S(=O)(=O)N2CCN(c3ncnc4ccccc34)CC2)c1C,"inconclusive: 29.1 µM [cytotoxic, single point]"
4,Cc1ccc2nc(-c3ccsc3)c(NC3CCCC3)n2c1,"inconclusive: 6.51 µM [cytotoxic, full curve]"
5,Cc1ccc(-n2nc3c(=O)n(CC(=O)NC4CCCCCC4)nc(C)c3c2C)cc1,"inconclusive: 6.51 µM [cytotoxic, full curve]"
6,COc1ccccc1CCNC(=O)C(=O)NCC1OCCCN1S(=O)(=O)c1ccc(F)cc1C (configuration not stated),"inconclusive: 8.2 µM [cytotoxic, partial curve]"
7,CCc1ccc(NC(=O)c2cnn(-c3c(C)cccc3C)c2C2CCN(C(=O)OC(C)(C)C)CC2)cc1,"inconclusive: 29.1 µM [cytotoxic, single point]"
8,COc1ccc(Cl)cc1Cn1c(C)c(C(=O)NCc2cccc([N+](=O)[O-])c2)sc1=O,"inconclusive: 8.2 µM [cytotoxic, partial curve, poor fit]"
9,CCN1C(=O)/C(=C\N2CCCCCC2)SC1=S,"inconclusive: 20.6 µM [cytotoxic, single point]"
10,CCOc1cc(N2CCOCC2)c(OCC)cc1NC(=O)Cc1cn2ccsc2n1,"inconclusive: 20.6 µM [cytotoxic, partial curve, poor fit]"
11,CC(=O)C1=C(NC(=O)c2ccccc2F)C[C@@H]2[C@H]1C2(C)C,inactive
12,O=C1NC(=O)C(c2cccs2)(c2cccs2)N1,"inconclusive: 6.51 µM [rising, full curve, poor fit]"
13,CCC(=O)Nc1ccc(C(=O)OCc2ccccc2Cl)cc1,active: 14.6 µM
14,COc1ccc(CCN(CC(=O)NC2CCCC2)C(=O)CCC(=O)Nc2cc(C)on2)cc1OC,inactive
15,Nc1c(C(=O)Nc2ccc3c(c2)OCCO3)nnn1Cc1cccc(Cl)c1,inactive
16,CC(=O)N(Cc1ccco1)C1(C(=O)NC2CCCC2)CCCCC1,"inconclusive: 9.2 µM [cytotoxic, partial curve, poor fit]"
17,Cc1nnc(N(C)C(=O)c2cnccn2)s1,"inconclusive: 25.9 µM [cytotoxic, single point]"
18,CCC(Sc1nnc2c3ccccc3n(CC)c2n1)C(=O)Nc1sc2c(c1C#N)CCCC2 (configuration not stated),"inconclusive: 23.1 µM [cytotoxic, single point]"
19,Cc1oc2ccc(NS(=O)(=O)c3ccccc3)cc2c1C(=O)Nc1ccccc1,"inconclusive: 18.4 µM [cytotoxic, single point]"
20,Cc1ccc(P(=O)(c2ccc(C)cc2)[C@@H](NC(c2ccccc2)c2ccccc2)c2ccccc2)cc1,active: 20.6 µM
21,CCn1c2ccccc2c2cc(NC(=O)c3ccco3)ccc21,"inconclusive: 23.1 µM [cytotoxic, single point]"

# Reference: PubChem BioAssay AID1347076 (National Center for Advancing Translational Sciences (NCATS), 2019)
